From PubChem BioAssay AID2685 (National Center for Advancing Translational Sciences (NCATS), 2010)
The other results are listed elsewhere or left out. Shown are side measurements of this screen, not its main read-out; they come without a call. Compounds called inactive in the main read-out are mostly missing here. The note in brackets gives the kind of curve behind each potency; many fits are weak.

Assay: qHTS Assay for Lipid Storage Modulators in Drosophila S3 Cells;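 on cell number change: cells counted by Cell Tracker Red CMTPX staining in the red channel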
Settings: BODIPY lipid droplet fluorescence, 18-24 h; for cell number change: measured here: cell count max response, cells fed with added oleic acid
Procedure, shortened: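 Drosophila S3 cells loaded with oleic acid (400 uM, as added) and compounds at several concentrations; lipid droplets imaged by 488-nm laser-scanning cytometry, 500–530 nm intensity and object ratio to cell channel. Percent activity normalized to 20 uM Triacsin C.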

[1] = measured here: cell number channel AC50, cells fed with added oleic acid
[2] = measured here: lipid fluorescence (Fed channel) AC50, cells fed with added oleic acid

**Q.** For `NC(N)=NS(=O)(=O)c1ccc(NC(=S)NC(=O)c2ccccc2)cc1`, which cell number change is on record?
**A.** -1.49%

**Q.** What about the AC50 [1] of the same molecule?
**A.** 0.731 µM [rising, single point]

**Q.** And the AC50 [2]?
**A.** 23.1 µM [falling, single point]

**Q.** With `O=C1NC(=O)/C(=C\c2ccc(Sc3ccc(Cl)cc3)o2)N1` as the molecule, how does the AC50 [1] read?
**A.** 0.92 µM [rising, full curve]

**Q.** What about the AC50 [2] of the same molecule?
**A.** 0.82 µM [rising, full curve]

**Q.** For `O=[N+]([O-])c1ccc(OCc2cn([C@@H](CO)c3ccccc3)nn2)c(Br)c1`, which cell number change is on record?
**A.** 27.8%

**Q.** With `O=C(NCCN1CCOCC1)c1ccc(CS(=O)(=O)c2c(Cl)cccc2Cl)o1` as the molecule, how does the AC50 [2] read?
**A.** 11.6 µM [rising, single point]

**Q.** For `C=C(C)[C@H]1CC=C(C)C(=O)C1`, which cell number change is on record?
**A.** 3.28%

**Q.** And the AC50 [1]?
**A.** 0.651 µM [rising, single point]

**Q.** Which cell number change does the source give for `COc1ccccc1C(=O)NC(C)C(c1cccs1)N1CCOCC1` (centres undefined) here?
**A.** 106%

**Q.** What about the AC50 [1] of the same molecule?
**A.** 13 µM [rising, partial curve]

**Q.** And the AC50 [2]?
**A.** 1.84 µM [falling, partial curve]

**Q.** Which results are given for `Cc1ccccc1CNC(=O)c1ccccc1SCC(=O)NCc1ccco1`?
**A.** cell number change: 87.1%; AC50 [1]: 8.2 µM [rising, partial curve]

**Q.** For `COC(=O)c1c(NC(=O)CSc2nc(-c3ccco3)cc(C(F)(F)F)n2)sc2c1CCCC2`, which cell number change is on record?
**A.** 13.3%

**Q.** What about the AC50 [2] of the same molecule?
**A.** 29.1 µM [rising, single point]

**Q.** Which cell number change does the source give for `O=C(Cc1ccc(Cl)cc1)NNC(=S)NC(=O)c1cccnc1` here?
**A.** -2%

**Q.** For `Cc1ccccc1N(C(=O)c1snc(C(N)=O)c1N)C(C(=O)NC1CCCCC1)c1ccc(O)cc1` (centres undefined), which cell number change is on record?
**A.** -1.71%

**Q.** Which cell number change does the source give for `CCN(CC(=O)Nc1c(F)cccc1F)C(=O)c1cccc(S(=O)(=O)N(C)c2ccccc2)c1` here?
**A.** 31.6%

**Q.** And the AC50 [1]?
**A.** 10.3 µM [rising, single point]

**Q.** What does the source list for `CC1C(=O)O[C@@H]2C[C@@H](C)[C@@H]3CCC(=O)[C@@]3(C)[C@@H](O)[C@H]12` (some centres undefined)?
**A.** cell number change: 14.2%; AC50 [2]: 0.231 µM [falling, full curve, poor fit]

**Q.** Which cell number change does the source give for `Cc1ccc(NC(=O)C(=O)NNC(=O)c2cccs2)cc1` here?
**A.** 11.1%

**Q.** What does the source list for `CN(C)/C=C/C(=O)c1cc(N2CCOCC2)ccc1[N+](=O)[O-]`?
**A.** cell number change: -17.7%; AC50 [2]: 32.6 µM [falling, single point]

**Q.** With `CCOC(=O)c1c(C)nc2c(c1-c1cc(OC)c(OC)c(OC)c1)C(=O)c1ccccc1-2` as the molecule, how does the cell number change read?
**A.** 41.9%

**Q.** What about the AC50 [1] of the same molecule?
**A.** 0.0146 µM [rising, full curve]

**Q.** And the AC50 [2]?
**A.** 0.206 µM [rising, partial curve]

**Q.** For `CCOc1ccccc1NC(=S)NC(=O)CCc1ccccc1`, which cell number change is on record?
**A.** -14.9%

**Q.** Which cell number change does the source give for `Cc1cccnc1CCNC(=O)CCc1nnc(-c2ccccc2)o1` here?
**A.** -15.8%

**Q.** And the AC50 [2]?
**A.** 1.64 µM [falling, full curve, poor fit]

**Q.** Which results are given for `Cc1noc(C)c1S(=O)(=O)N1CCC(C(=O)N2CCC(N3CCCCC3)CC2)CC1`?
**A.** cell number change: 41.9%; AC50 [1]: 6.51 µM [rising, single point]; AC50 [2]: 25.9 µM [rising, single point]

**Q.** Which results are given for `Cc1nn(Cc2ccc(C(=O)N/N=C/c3ccncc3)o2)c(C)c1Cl`?
**A.** cell number change: 22.8%; AC50 [2]: 29.1 µM [rising, single point]

**Q.** For `Cc1nc(N2CCOCC2)nc(OCCN2CCOCC2)c1[N+](=O)[O-]`, which cell number change is on record?
**A.** 13.1%

**Q.** And the AC50 [2]?
**A.** 0.00461 µM [falling, full curve, poor fit]

**Q.** Which results are given for `Brc1cccc(OCCCCN2CCCCC2)c1`?
**A.** cell number change: 21%; AC50 [1]: 3.26 µM [rising, single point]; AC50 [2]: 5.8 µM [rising, partial curve, poor fit]

**Q.** With `CC(O)c1nc2ccccc2n1CC(=O)Nc1ccc(F)cc1Cl` (centres undefined) as the molecule, how does the cell number change read?
**A.** -14.6%

**Q.** For `CC1(C)CC(=O)C=C(N2CCNCC2)C1`, which cell number change is on record?
**A.** -9.03%

**Q.** And the AC50 [2]?
**A.** 5.8 µM [falling, full curve]

**Q.** With `O=C(Cc1nnc(NC(=O)c2ccccc2)s1)N/N=C\c1ccc(O)c(O)c1` as the molecule, how does the cell number change read?
**A.** -13.5%

**Q.** Which AC50 [2] does the source give for `CC(=O)c1cc2c(cc1N(C(=O)Cn1nnc3ccccc31)C(C(=O)NCCC(C)C)c1cccnc1)OCO2` (centres undefined) here?
**A.** 2.59 µM [rising, single point]

**Q.** Which AC50 [2] does the source give for `O=C(CCCCCNC(=S)Nc1ccccc1)C[N+](=O)[O-]` here?
**A.** 0.116 µM [falling, full curve, poor fit]

**Q.** For `CCN(CC)C(=O)COc1ccc2c3c(c(=O)oc2c1C)CCCC3`, which cell number change is on record?
**A.** 1.1%

**Q.** And the AC50 [2]?
**A.** 29.1 µM [rising, single point]

**Q.** For `COc1cc(C=O)ccc1OCC(=O)N1CCOCC1`, which cell number change is on record?
**A.** -6.94%

**Q.** And the AC50 [2]?
**A.** 29.1 µM [falling, single point]

**Q.** With `CCSc1nnc(NC(=O)CSc2nc3c(c(=O)n2CCOC)SC(C)C3)s1` (centres undefined) as the molecule, how does the cell number change read?
**A.** -53.5%

**Q.** What about the AC50 [1] of the same molecule?
**A.** 10.3 µM [falling, partial curve]

**Q.** What about the AC50 [2] of the same molecule?
**A.** 9.2 µM [falling, partial curve]

**Q.** Which results are given for `O=C(NCCCN1CCCC1=O)c1cn(-c2ccccc2)nc1-c1ccccc1`?
**A.** cell number change: 17.5%; AC50 [2]: 16.4 µM [rising, single point]

**Q.** For `O=C(c1cnn2c(C(F)F)cc(C3CC3)nc12)N1CCOCC1`, which cell number change is on record?
**A.** 31%

**Q.** And the AC50 [1]?
**A.** 25.9 µM [rising, single point]

**Q.** What about the AC50 [2] of the same molecule?
**A.** 0.13 µM [falling, single point]
